The values below come from PMC5967302.

The labels stand for the following.
T1: CDC50A-FLAG (mouse) (UniProt Q8VEK0)
T1 sequence: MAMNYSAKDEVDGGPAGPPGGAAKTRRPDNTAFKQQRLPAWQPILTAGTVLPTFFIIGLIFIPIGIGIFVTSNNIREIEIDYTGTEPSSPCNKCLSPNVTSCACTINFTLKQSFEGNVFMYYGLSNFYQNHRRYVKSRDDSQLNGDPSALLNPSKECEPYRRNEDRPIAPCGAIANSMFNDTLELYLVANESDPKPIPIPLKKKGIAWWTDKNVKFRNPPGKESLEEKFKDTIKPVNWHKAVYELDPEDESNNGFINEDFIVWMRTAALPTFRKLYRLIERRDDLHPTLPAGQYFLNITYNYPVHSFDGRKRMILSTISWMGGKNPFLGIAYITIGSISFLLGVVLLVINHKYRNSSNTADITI

B1: EGFP-ATP8B2 (protein, UniProt P98199 1-1209)
chain: MTVPKEIPEKWARAGAPPSWSQKKPSWGTEEERRARANDREYNEKFQYASNCIKTSKYNIVTFLPVNLFEQFQEVANTYFLFLLILQLIPQISSLSWFTTIVPLVLVLTITAVKDATDDYFRHKSDNQVNNRHSQVLINGVLQQEQWMNVCVGDIIKLENNQFVAADLLLLSSSEPHGLCYIETAELDGETNMKVRQAIPVTSELGDVSQLARFDGEVICEPPNNKLDKFSGTLYWKENKFPLSNQNMLLRGCVLRNTEWCFGLVIFAGPDTKLMQNSGRTKFKRTSIDRLMNTLVLWIFGFLVCMGVILAIGNAIWEHEVGTRFQVYLPWDEAVDSAFFSGFLSFWSYIIILNTVVPISLYVSVEVIRLGHSYFINWDKKMFCMKKRTPAEARTTTLNEELGQVEYIFSDKTGTLTQNIMVFNKCSINGHSYGDVFDVLGHKAELGERPEPVDFSFNPLADKKFLFWDSSLLEAVKMGDPHTHEFFRLLSLCHTVMSEEKNEGELYYKAQSPDEGALVTAARNFGFVFRSRTPKTITVHELGTAITYQLLAILDFNNIRKRMSVIVRNPEGKIRLYCKGADTILLDRLHPPTQELLSSTTDHLNEYAGDGLRTLVLAYKDLDEEYYEEWARRRLQASLAQDSREDRLASIYEEVESDMMLLGATAIEDKLQQGVPETIALLTLANIKIWVLTGDKQETAVNIGYSCKMLTDDMTEVFVVTGHTVLEVREELRKARKKMVDSSHAVGNGFTYQGNLSSSKLTSVLEAVAGEYALVINGHSLAHALEADMELEFLETACACKAVICCRVTPLQKAQVVELVKKYKKAVTLAIGDGANDVSMIKTAHIGVGISGQEGIQAVLASDYSFSQFKFLQRLLLVHGRWSYLRMCKFLCYFFYKNFAFTMVHFWFGFFCGFSAQTVYDQYFITLYNIVYTSLPVLAMGVFDQDVPEQRSMEYPKLYEPGQLNLLFNKREFFICIAQGIYTSVLMFFIPYGVFAEATRDDGTQLADYQSFAVTVATSLVIVVSVQIGLDTGYWTAINHFFIWGSLAVYFAILFAMHSNGLFDMFPNQFRFVGNAQNTLAQPTVWLTIALTTAVCIMPVVAFRFLRLSLKPDLSDTVRYTQLVRKKQKAQHRCMRRVGRTGSRRSGYAFSHQEGFGELIMSGKNMRLSSLALSSFSTRSSSSWIESLRRKKSDSANSPSGGAEKPLKG
B2: EGFP-ATP11A (protein, UniProt P98197 1-1187)
chain: MDCSLLRTLVRRYCAGEENWVDSRTIYVGHKEPPPGAEAYIPQRYPDNRIVSSKYTFWNFIPKNLFEQFRRIANFYFLIIFLVQLIIDTPTSPVTSGLPLFFVITVTAIKQGYEDWLRHKADNAMNQCPVHFIQHGKLVRKQSRKLRVGDIVMVKEDETFPCDLIFLSSNRADGTCHVTTASLDGESSHKTHYAVQDTKGFHTEADVDSLHATIECEQPQPDLYKFVGRINVYNDLNDPVVRPLGSENLLLRGATLKNTEKIFGVAIYTGMETKMALNYQSKSQKRSAVEKSMNTFLIVYLCILVSKALINTVLKYVWQSEPFRDEPWYNEKTESERQRNLFLRAFTDFLAFMVLFNYIIPVSMYVTVEMQKFLGSYFITWDEDMFDEEMGEGPLVNTSDLNEELGQVEYIFTDKTGTLTENNMAFKECCIEGHVYVPHVICNGQVLPDSSGIDMIDSSPGVCGREREELFFRAICLCHTVQVKDDHCGDDVDGPQKSPDAKSCVYISSSPDEVALVEGVQRLGFTYLRLKDNYMEILNRENDIERFELLEVLTFDSVRRRMSVIVKSTTGEIYLFCKGADSSIFPRVIEGKVDQVRSRVERNAVEGLRTLCVAYKRLEPEQYEDACRLLQSAKVALQDREKKLAEAYEQIEKDLVLLGATAVEDRLQEKAADTIEALQKAGIKVWVLTGDKMETASATCYACKLFRRSTQLLELTTKKLEEQSLHDVLFDLSKTVLRCSGSMTRDSFSGLSTDMHDYGLIIDGAALSLIMKPREDGSSSGNYRELFLEICRNCSAVLCCRMAPLQKAQIVKLIKFSKEHPITLAIGDGANDVSMILEAHVGIGVIGKEGRQAARNSDYAIPKFKHLKKMLLVHGHFYYIRISELVQYFFYKNVCFIFPQFLYQFFCGFSQQTLYDTAYLTLYNISFTSLPILLYSLMEQHVGIDVLKRDPTLYRDIAKNALLRWRVFIYWTFLGVFDALVFFFGAYFIFENTTVTINGQMFGNWTFGTLVFTVMVLTVTLKLALDTHYWTWINHFVIWGSLLFYIAFSLLWGGVIWPFLSYQRMYYVFISMLSSGPAWLGIILLVTVGLLPDVLKKVLCRQLWPTATERTQNIQHQDSISEFTPLASLPSWGAQGSRLLAAQCSSPSGRVVCSRWESEECPVLPLHPGLPHKARYGCCRSSLEMPT
B3: EGFP-ATP8B1 (protein, UniProt Q148W0 1-1251)
chain: MSTERDSETTFDEESQPNDEVVPYSDDETEDELEDQGSTVEPEQNRVNREAEKKRETFRKDCTWQVKANDRKFHEQPHFMNTKFFCIKESKYASNAIKTYKYNGFTFLPMNLFEQFKRAANFYFLILLILQAIPQISTLAWYTTLVPLLLVLGITAIKDLVDDVARHKMDKEINNRTCEVIKDGRFKIIKWKDIQVGDVIRLKKNDFIPADILLLSSSEPNSLCYVETAELDGETNLKFKMALEITDQYLQIEDNLATFDGFIECEEPNNRLDKFTGTLFWKNQSFPLDADKILLRGCVIRNTDVCHGLVIFAGADTKIMKNSGKTRFKRTKIDYLMNYMVYTIFIVLILVSAGLAIGHAYWEAQVGNYSWYLYDGENATPSYRGFLNFWGYIIVLNTMVPISLYVSVEVIRLGQSHFINWDLQMYYAEKDTPAKARTTTLNEQLGQIHYIFSDKTGTLTQNIMTFKKCCINGTIYGDHRDASQHSHSKIELVDFSWNTFADGKLAFYDHYLIEQIQSGKEPEVRQFFFLLSICHTVMVDRIDGQINYQAASPDEGALVNAARNFGFAFLARTQNTITVSELGSERTYNVLAILDFNSDRKRMSIIVRTPEGSIRLYCKGADTVIYERLHRMNPTKQETQDALDIFASETLRTLCLCYKEIEEKEFTEWNNKFMAASVASSNRDEALDKVYEEIEKDLILLGATAIEDKLQDGVPETISKLAKADIKIWVLTGDKKETAENIGFACELLTEDTTICYGEDINSLLHTRMENQRNRGGVSAKFAPPVYEPFFPPGENRALIITGSWLNEILLEKKTKRSKILKLKFPRTEEERRMRSQSRRRLEEKKEQRQKNFVDLACECSAVICCRVTPKQKAMVVDLVKRYKKAITLAIGDGANDVNMIKTAHIGVGISGQEGMQAVMSSDYSFAQFRYLQRLLLVHGRWSYIRMCKFLRYFFYKNFAFTLVHFWYSFFNGYSAQTAYEDWFITLYNVLYSSLPVLLMGLLDQDVSDKLSLRFPGLYVVGQRDLLFNYKRFFVSLLHGVLTSMVLFFIPLGAYLQTVGQDGEAPSDYQSFAVTVASALVITVNFQIGLDTSYWTFVNAFSIFGSIALYFGIMFDFHSAGIHVLFPSAFQFTGTASNALRQPYIWLTIILTVAVCLLPVVAIRFLSMTIWPSESDKIQKHRKRLKAEEQWKRRQSVFRRGVSSRRSAYAFSHQRGYADLISSGRSIRKKRSPLDAIIADGTAEYRRTVES

No constants are given. Whether binding was seen depends on the method and setting. In cells and extracts the contact can be indirect. Some binding calls cover weakened binding; strength is not graded here. Where a sequence is shown, tags or fusion partners need not be part of it.

This experiment has as its target T1, CDC50A-FLAG (mouse). Put plainly: co-IP; HEK293 cells co-transfected with pEGFP-P4-ATPases and pCDC50A-FLAG; lysis in 150 mM NaCl, 50 mM Tris pH 7.4, 1% Triton X-100; anti-FLAG M2 affinity gel 30 min on ice; washed with 0.1% Triton X-100/TBS; eluted with FLAG peptide; immunoblot.
As to B1, the binding result is reported as “binds”.

B2: the binding entry was “binds”.

Regarding B3, the binding entry is “binds”.
